# Results: the supplement of paper PMC12067093, “Discovery and optimisation of a covalent ligand for TRIM25 and its application to targeted protein ubiquitination” (Chemical Science, 2025)
# Amino acid sequences for entries named in this document (tags omitted). A change or cut given only in a name is not applied to a line headed by its entry.
# UniProt P05107, whole entry, looked up: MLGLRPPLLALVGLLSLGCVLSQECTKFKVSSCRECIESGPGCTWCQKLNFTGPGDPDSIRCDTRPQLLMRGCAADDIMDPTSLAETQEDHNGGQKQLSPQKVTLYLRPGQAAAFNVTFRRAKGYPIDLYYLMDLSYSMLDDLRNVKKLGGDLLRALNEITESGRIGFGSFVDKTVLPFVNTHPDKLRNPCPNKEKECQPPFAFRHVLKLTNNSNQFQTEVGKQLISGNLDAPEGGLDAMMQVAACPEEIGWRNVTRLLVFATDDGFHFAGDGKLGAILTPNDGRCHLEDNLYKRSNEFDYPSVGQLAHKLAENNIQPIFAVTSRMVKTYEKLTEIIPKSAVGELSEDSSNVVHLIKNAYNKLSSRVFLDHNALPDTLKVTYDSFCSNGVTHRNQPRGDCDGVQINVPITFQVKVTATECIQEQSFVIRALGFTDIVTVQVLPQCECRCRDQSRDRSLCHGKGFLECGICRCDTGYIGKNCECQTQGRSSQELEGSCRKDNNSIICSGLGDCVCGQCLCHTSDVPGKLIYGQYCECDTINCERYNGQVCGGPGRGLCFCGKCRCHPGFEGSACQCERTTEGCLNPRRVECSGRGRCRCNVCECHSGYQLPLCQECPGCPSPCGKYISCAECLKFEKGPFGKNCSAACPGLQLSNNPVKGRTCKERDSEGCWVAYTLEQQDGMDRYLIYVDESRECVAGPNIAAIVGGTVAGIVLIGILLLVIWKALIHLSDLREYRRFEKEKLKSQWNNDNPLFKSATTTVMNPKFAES
# UniProt Q8IU81: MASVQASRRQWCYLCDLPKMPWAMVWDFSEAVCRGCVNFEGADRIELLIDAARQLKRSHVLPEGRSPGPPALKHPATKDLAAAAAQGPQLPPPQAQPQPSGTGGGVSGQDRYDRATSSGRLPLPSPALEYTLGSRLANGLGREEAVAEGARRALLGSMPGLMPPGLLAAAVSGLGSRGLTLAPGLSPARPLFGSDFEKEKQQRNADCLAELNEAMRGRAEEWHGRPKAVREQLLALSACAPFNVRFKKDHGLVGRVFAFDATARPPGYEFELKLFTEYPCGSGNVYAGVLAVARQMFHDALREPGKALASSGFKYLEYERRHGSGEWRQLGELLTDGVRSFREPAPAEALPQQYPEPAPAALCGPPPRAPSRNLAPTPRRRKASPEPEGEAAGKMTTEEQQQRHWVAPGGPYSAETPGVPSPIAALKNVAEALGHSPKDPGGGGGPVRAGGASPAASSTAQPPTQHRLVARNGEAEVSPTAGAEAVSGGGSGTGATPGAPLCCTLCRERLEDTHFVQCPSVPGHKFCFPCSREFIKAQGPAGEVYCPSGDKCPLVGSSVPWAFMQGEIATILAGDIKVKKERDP
# UniProt O00410: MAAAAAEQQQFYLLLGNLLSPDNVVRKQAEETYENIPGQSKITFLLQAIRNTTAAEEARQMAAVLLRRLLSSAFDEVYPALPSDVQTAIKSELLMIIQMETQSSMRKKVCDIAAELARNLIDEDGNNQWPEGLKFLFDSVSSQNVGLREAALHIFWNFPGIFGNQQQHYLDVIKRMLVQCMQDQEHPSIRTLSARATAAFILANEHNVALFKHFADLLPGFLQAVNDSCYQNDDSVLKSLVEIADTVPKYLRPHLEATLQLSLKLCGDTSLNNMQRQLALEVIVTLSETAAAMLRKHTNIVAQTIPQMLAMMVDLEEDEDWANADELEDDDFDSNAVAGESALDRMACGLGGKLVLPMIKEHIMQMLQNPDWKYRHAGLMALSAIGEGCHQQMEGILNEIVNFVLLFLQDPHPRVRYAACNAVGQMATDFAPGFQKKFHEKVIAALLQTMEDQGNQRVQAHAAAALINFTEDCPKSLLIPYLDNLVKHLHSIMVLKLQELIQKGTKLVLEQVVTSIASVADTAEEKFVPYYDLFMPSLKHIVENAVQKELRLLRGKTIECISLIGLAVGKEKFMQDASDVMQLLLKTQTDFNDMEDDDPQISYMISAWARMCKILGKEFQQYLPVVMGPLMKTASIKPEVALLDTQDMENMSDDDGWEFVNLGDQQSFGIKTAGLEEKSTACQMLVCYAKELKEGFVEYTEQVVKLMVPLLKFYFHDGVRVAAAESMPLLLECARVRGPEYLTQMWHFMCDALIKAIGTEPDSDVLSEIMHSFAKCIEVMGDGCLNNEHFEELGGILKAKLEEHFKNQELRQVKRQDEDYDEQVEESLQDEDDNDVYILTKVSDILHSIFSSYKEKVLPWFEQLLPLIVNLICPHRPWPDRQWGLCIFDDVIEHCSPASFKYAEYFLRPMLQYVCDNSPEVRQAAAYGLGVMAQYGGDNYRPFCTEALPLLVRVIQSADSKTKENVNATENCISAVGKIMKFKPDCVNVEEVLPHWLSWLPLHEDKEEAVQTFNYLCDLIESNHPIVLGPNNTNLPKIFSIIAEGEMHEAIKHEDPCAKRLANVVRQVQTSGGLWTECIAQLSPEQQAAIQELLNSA
# UniProt P46940, whole entry, looked up: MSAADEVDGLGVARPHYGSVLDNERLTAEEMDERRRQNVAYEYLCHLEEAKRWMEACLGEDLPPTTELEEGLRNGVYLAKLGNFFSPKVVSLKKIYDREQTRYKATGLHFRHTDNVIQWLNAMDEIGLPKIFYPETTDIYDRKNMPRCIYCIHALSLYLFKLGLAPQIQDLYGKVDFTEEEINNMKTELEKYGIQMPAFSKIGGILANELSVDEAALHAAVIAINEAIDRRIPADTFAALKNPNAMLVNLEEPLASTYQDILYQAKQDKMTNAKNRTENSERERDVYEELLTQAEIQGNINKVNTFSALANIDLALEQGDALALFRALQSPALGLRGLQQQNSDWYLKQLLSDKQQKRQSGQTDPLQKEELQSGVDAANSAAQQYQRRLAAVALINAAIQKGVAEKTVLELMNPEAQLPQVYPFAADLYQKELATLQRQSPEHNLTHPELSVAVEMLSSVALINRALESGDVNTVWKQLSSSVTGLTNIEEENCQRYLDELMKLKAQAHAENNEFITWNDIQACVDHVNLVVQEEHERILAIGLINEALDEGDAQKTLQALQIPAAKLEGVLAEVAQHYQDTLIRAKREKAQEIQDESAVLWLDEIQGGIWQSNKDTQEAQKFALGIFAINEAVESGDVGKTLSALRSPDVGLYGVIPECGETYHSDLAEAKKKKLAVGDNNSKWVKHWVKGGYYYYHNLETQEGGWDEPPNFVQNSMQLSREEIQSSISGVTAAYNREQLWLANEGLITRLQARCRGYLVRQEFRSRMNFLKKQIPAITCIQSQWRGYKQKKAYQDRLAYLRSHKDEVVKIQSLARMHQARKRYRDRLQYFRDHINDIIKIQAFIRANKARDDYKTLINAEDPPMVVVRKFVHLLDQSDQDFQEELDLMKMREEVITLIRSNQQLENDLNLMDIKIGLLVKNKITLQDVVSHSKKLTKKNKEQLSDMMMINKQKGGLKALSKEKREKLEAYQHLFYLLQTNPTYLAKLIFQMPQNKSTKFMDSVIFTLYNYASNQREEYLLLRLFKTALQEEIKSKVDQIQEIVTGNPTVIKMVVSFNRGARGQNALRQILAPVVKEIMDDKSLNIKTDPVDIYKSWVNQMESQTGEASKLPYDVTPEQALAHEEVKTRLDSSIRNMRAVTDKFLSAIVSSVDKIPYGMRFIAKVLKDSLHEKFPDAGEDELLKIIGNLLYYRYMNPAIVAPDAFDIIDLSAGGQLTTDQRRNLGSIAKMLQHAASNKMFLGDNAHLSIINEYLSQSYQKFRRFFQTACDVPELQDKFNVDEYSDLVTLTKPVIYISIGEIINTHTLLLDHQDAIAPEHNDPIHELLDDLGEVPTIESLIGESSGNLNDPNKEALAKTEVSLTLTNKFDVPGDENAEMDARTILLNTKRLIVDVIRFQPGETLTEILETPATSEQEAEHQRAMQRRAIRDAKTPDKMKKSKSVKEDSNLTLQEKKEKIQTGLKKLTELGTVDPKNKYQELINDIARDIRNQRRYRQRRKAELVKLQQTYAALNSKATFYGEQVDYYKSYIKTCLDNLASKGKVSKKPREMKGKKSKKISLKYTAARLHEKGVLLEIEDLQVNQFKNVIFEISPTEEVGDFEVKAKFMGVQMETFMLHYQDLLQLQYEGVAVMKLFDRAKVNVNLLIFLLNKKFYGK
# UniProt Q96SY0, whole entry, looked up: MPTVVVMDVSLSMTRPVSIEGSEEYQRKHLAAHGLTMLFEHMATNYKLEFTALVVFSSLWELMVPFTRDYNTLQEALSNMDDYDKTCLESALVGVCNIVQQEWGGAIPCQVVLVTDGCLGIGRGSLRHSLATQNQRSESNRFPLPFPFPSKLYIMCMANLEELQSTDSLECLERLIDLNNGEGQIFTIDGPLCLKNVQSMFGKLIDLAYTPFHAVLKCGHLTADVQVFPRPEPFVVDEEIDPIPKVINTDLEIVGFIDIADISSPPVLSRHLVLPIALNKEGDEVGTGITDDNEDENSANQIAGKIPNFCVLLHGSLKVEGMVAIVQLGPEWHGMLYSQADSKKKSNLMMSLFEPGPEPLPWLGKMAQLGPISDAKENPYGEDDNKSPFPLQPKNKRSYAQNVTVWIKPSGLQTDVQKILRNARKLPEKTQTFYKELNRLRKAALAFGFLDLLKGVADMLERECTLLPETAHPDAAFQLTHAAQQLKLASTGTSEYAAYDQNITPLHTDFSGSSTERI
# UniProt Q9UHH9: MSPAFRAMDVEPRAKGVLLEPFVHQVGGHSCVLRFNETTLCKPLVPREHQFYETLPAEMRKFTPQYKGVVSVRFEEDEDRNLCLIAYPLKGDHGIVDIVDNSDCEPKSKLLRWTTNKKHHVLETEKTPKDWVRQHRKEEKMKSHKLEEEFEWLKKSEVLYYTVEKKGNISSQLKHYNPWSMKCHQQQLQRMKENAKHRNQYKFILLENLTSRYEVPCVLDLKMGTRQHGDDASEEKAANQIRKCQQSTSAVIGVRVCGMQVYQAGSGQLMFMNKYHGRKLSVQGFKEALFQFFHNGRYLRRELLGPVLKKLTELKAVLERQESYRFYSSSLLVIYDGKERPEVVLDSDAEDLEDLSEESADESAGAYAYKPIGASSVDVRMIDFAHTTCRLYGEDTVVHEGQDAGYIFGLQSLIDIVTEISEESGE
# UniProt P06213, whole entry, looked up: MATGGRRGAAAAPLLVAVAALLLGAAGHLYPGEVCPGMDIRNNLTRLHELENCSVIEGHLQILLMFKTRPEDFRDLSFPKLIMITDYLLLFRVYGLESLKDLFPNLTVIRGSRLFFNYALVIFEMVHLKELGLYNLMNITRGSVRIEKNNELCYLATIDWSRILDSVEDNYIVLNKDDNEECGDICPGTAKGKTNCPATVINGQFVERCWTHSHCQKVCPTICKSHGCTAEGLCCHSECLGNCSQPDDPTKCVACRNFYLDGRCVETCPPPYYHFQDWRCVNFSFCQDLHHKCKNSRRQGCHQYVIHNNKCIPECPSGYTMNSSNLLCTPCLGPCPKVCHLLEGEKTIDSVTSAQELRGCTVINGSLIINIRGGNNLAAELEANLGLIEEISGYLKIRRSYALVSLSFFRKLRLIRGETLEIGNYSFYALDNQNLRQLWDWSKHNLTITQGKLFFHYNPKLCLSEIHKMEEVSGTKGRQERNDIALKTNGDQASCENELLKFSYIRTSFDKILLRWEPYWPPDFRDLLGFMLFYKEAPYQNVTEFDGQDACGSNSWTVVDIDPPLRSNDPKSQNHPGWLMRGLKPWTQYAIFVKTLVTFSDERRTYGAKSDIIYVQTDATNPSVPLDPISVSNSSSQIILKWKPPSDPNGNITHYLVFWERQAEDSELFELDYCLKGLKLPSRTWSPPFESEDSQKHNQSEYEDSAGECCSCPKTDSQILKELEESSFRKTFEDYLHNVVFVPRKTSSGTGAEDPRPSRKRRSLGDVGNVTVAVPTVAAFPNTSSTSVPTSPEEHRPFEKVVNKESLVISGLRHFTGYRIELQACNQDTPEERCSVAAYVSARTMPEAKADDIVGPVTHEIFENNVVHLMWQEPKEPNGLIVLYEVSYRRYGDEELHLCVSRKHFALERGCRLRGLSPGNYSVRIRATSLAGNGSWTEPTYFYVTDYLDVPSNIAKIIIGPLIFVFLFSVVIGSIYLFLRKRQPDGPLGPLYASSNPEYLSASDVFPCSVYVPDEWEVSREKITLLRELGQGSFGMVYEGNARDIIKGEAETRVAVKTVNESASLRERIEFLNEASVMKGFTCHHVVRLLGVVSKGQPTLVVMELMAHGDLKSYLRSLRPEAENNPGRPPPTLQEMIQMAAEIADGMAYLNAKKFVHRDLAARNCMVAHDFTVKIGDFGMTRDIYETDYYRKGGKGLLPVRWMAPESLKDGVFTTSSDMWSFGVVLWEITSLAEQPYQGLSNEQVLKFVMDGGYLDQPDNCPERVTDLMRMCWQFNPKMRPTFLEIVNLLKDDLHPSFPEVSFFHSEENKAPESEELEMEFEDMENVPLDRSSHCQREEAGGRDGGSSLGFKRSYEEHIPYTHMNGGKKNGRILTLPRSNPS
# The list shows a part of the results.
# Compound: Cc1cc(ccc1-c1ccccc1)C(=O)N1CCCN(CC1)C(=O)CCl [compound 10]
# Assay: probe-labelled cysteine peptide fold change vs DMSO (competition) (log2 fold change); higher = less target engagement (more negative = stronger competition)
# Settings: 10 µM; THP-1; incubation time: 4 h
# 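Further: competitive profiling in live THP-1 cells: cysteine peptides tagged with an iodoacetamide desthiobiotin (IA-DTB) probe, intensity after compound treatment relative to DMSO-treated cells.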
row,Target,probe-labelled cysteine peptide fold change
1,ITGB2_P05107_73_GCAADDIMDPTSLAETQEDHNGGQK (UniProt P05107),0.0624
2,ITGA7_Q13683_539+546_SIDLEQPNCAGGHSVCVDLR (UniProt Q13683),-0.529
3,ITPA_Q9BY32_57_CQEAVR (UniProt Q9BY32),0.0513
4,ITGB1_P05556_301_LGGIVLPNDGQCHLENNMYTMSHYYDYPSIAHLVQK (UniProt P05556),-0.126
5,ITGAL_P20701_998_IQPSIHDHNIPTLEAVVGVPQPPSEGPITHQWSVQMEPPVPCHYEDLER (UniProt P20701),0.64
6,IRF2BP1_Q8IU81_15_RQWCYLCDLPK (UniProt Q8IU81),0.275
7,IPO11_Q9UI26_894_DCMLMSHLEEPKVTEDEEPPTEQDKR (UniProt Q9UI26),-0.311
8,INTS13_Q9NVM9_406_SILEDPPSISEGCGGR (UniProt Q9NVM9),-0.197
9,ITGB2_P05107_573+575_CHPGFEGSACQCER (UniProt P05107),-0.116
10,IPO5_O00410_687_STACQMLVCYAK (UniProt O00410),-0.0903
11,ITGAX_P20702_848+863_SLHLTCDSAPVGSQGTWSTSCR (UniProt P20702),0.204
12,IQGAP1_P46940_45_QNVAYEYLCHLEEAKR (UniProt P46940),0.0748
13,INTS14_Q96SY0_218_CGHLTADVQVFPRPEPFVVDEEIDPIPK (UniProt Q96SY0),0.177
14,ITGA5_P08648_156_AHGSSILACAPLYSWR (UniProt P08648),-0.171
15,INTS8_Q75QN2_701_LGQLLAATCK (UniProt Q75QN2),0.0476
16,INTS4_Q96HW7_109_TAGFSPDCIMDDAINILQNEK (UniProt Q96HW7),-0.0858
17,INTS14_Q96SY0_171_LYIMCMANLEELQSTDSLECLER (UniProt Q96SY0),0.0485
18,IP6K2_Q9UHH9_104_GDHGIVDIVDNSDCEPK (UniProt Q9UHH9),-0.102
19,INPPL1_O15357_1187_ESIQEDLAEEAPCLQGGR (UniProt O15357),0.438
20,INTS1_Q8N201_2099_LMSSAEECCR (UniProt Q8N201),0.0884

# Two entries from above, bar-delimited.
row | Target | probe-labelled cysteine peptide fold change
6 | IRF2BP1_Q8IU81_15_RQWCYLCDLPK (UniProt Q8IU81) | 0.275
7 | IPO11_Q9UI26_894_DCMLMSHLEEPKVTEDEEPPTEQDKR (UniProt Q9UI26) | -0.311

# Continuation.

row,Target,probe-labelled cysteine peptide fold change
1,IPO5_O00410_915_YAEYFLRPMLQYVCDNSPEVR (UniProt O00410),0.0323
2,IQGAP1_P46940_45_QNVAYEYLCHLEEAK (UniProt P46940),0.176
3,INTS5_Q6P9B9_485_NHVGELCGETLR (UniProt Q6P9B9),0.0512
4,IRF8_Q02556_306_VFCSGNAVVCK (UniProt Q02556),-0.096
5,INSR_P06213_153_NNELCYLATIDWSR (UniProt P06213),0.0759
6,IRF2BP1_Q8IU81_518_ERLEDTHFVQCPSVPGHK (UniProt Q8IU81),-0.195
7,ISY1_Q9ULR0_36_RPFLASECTELPK (UniProt Q9ULR0),0.119
8,INTS10_Q9NVR2_176_LFVCDVLPLIINNHDVR (UniProt Q9NVR2),0.0624
9,INTS3_Q68E01_843_YKEHPEALSCLLLQLR (UniProt Q68E01),-0.0729
10,INPP5F_Q9Y2H2_725_NPEEDGKDTLQCIAEMLQITK (UniProt Q9Y2H2),-0.0594
11,IPO5_O00410_110_VCDIAAELAR (UniProt O00410),-0.0382
12,ITGA4_P13612_861_VCALEQQK (UniProt P13612),-0.177
13,INSR_P06213_196_TNCPATVINGQFVER (UniProt P06213),-0.0772
14,ITGB1_P05556_691_DKLPQPVQPDPVSHCK (UniProt P05556),-0.108
15,IPO7_O95373_90_NMITQYWPDRETAPGDISPYTIPEEDRHCIR (UniProt O95373),-0.111
16,INTS13_Q9NVM9_178_MLEDCVQETIHEHNK (UniProt Q9NVM9),0.0728
17,INTS12_Q96CB8_209_LVWYCAR (UniProt Q96CB8),-0.328
18,IRF2BP2_Q7Z5L9_19_QSCYLCDLPR (UniProt Q7Z5L9),0.0424
19,INSR_P06213_462_LCLSEIHK (UniProt P06213),-0.0622
